Results deposited as PubChem BioAssay AID504791 (Drosophila RNAi Screening Center, 2011)
The screen tested about 23,000 reagents; below is a random part of those that have a named target and a result. Over the whole deposit, 199 (0.86%) were called active. 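Plate-scaled ratios behind the calls are not deposited; printed light signals are raw; many rows marked increased or decreased are still called inactive.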 Entries without a mark were called inactive. A plus sign joins genes that one reagent is predicted to hit. The record does not give: the direction of the score.

Purpose: 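Genes whose knock-down strengthens or weakens small-RNA reporter silencing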 (primary screen)
Cell system: Drosophila S2-derived reporter cells
Knock-down reagent: long dsRNA against Drosophila genes, about 150-250 ng dsRNA per well (siRNA assay); about 80-120 ng (miRNA assay)
Timing: about 5 days (siRNA assay); about 4 days (miRNA assay)
Conditions: copper sulfate induction of reporters: 25 µM (siRNA assay); 200 mM stated (miRNA assay), 1-2 days before reading
Measurement: 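Per-well ratio of Renilla over firefly light, expressed relative to that plate's average ratio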
Call rule: 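First-pass picks had plate-scaled ratios over 1.5 for the siRNA assay, over 1.6 for the miRNA assay, or under 0.6; two distinct dsRNAs had to score alike on retest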

| Gene | dsRNA | stable assay Renilla, run 1 (luminescence) | stable assay firefly, run 1 (luminescence) |
| --- | --- | --- | --- |
| Acyp2 (GeneID 41910) | DRSC15336 | 5616 | 3.50e5 |
| CG31693 (GeneID 318887) | DRSC03674 | 5432 | 2.85e5 |
| CG8176 (GeneID 261329) | DRSC16394 | 5923 | 3.36e5 |
| CG32006 (GeneID 317817) | DRSC21768 | 10148 | 5.68e5 |
| fipi (GeneID 33676) | DRSC00465 | 6791 | 3.89e5 |
| CG8526 (GeneID 41208) | DRSC16438 | 7230 | 4.26e5 |
| RpL37A (GeneID 44783) | DRSC02899 | 10098 | 3.69e5 |
| CG42662 + CG30080 | DRSC05571 | 6399 | 4.65e5 |
| CG30427 (GeneID 37986) | DRSC04014 | 4335 | 4.05e5 |
| CG30427 (GeneID 37986) | DRSC04311 | 36820 | 9.57e5 |
| CG30427 (GeneID 37986) | DRSC04323 | 6267 | 4.20e5 |
| Ltn1 (GeneID 40127) | DRSC11056 | 10130 | 4.76e5 |
| Ltn1 (GeneID 40127) | DRSC11058 | 6388 | 3.87e5 |
| CG12620 (GeneID 35034) | DRSC02177 | 8175 | 4.17e5 |
| CG30156 (GeneID 246488) | DRSC04959 | 4763 | 5.38e5 |
| CG5762 (GeneID 42907) | DRSC15869 | 8170 | 3.48e5 |
| mus304 (GeneID 40003) | DRSC11372 | 7611 | 3.12e5 |
| Lcch3 (GeneID 32554) | DRSC20257 | 7848 | 6.08e5 |
| Lcch3 (GeneID 32554) | DRSC22175 | 8302 | 4.43e5 |
| CG14507 (GeneID 43461) | DRSC14859 | 5999 | 3.46e5 |
| CG15721 (GeneID 32247) | DRSC19688 | 5638 | 4.75e5 |
| Usp1 (GeneID 43462) | DRSC14155 | 7791 | 4.83e5 |
| Spn28F (GeneID 49807) | DRSC03615 | 7583 | 3.19e5 |
| Elal (GeneID 42970) | DRSC16662 | 12452 | 5.16e5 |
| CG6830 (GeneID 41408) | DRSC16124 | 6467 | 3.79e5 |
| CG33263 (GeneID 2768952) | DRSC10108 | 6826 | 4.02e5 |
| trol (GeneID 45320) | DRSC17714 | 8075 | 4.12e5 |
| trol (GeneID 45320) | DRSC17718 | 6627 | 4.18e5 |
| trol (GeneID 45320) | DRSC18613 | 6019 | 3.31e5 |
| trol (GeneID 45320) | DRSC18814 | 5915 | 3.45e5 |
| Gcna (GeneID 31139) | DRSC18553 | 8358 | 4.87e5 |
| CG1850 (GeneID 35647) | DRSC06762 | 5919 | 3.54e5 |
| Bap111 (GeneID 31846) | DRSC18419 | 4479 | 5.09e5 |
| CG11586 (GeneID 38520) | DRSC08203 | 3399 | 3.75e5 |
| Membrin (GeneID 38614) | DRSC10448 | 5938 | 3.27e5 |
| Gr22c (GeneID 117499) | DRSC22081 | 8739 | 4.38e5 |
| loj (GeneID 38698) | DRSC09791 | 7360 | 4.07e5 |
| Atac1 (GeneID 33977) | DRSC03155 | 7442 | 4.73e5 |
| CG32204 (GeneID 317913) | DRSC09574 | 4507 | 4.05e5 |
| CG14710 (GeneID 41393) | DRSC14933 | 7575 | 3.87e5 |
| CG7943 (GeneID 43574) | DRSC16351 | 8588 | 3.48e5 |
| CG8245 (GeneID 35503) | DRSC04901 | 5708 | 4.86e5 |
| Rh7 (GeneID 39389) | DRSC10529 | 8106 | 3.91e5 |
| CG13461 (GeneID 39635) | DRSC10008 | 6780 | 2.54e5 |
| Khc (GeneID 36810) | DRSC07448 | 8555 | 2.99e5 |
| CG3927 (GeneID 37576) | DRSC04433 | 5408 | 3.34e5 |
| CG3927 (GeneID 37576) | DRSC22813 | 4911 | 4.53e5 |
| polo (GeneID 40232) | DRSC11384 | 4331 | 3.87e5 |
| polo (GeneID 40232) | DRSC22359 | 9598 | 6.14e5 |
| Nlg4 (GeneID 42402) | DRSC15108 | 6659 | 3.40e5 |
| Nlg4 (GeneID 42402) | DRSC15109 | 6395 | 3.71e5 |
| Nlg4 (GeneID 42402) | DRSC15700 | 6878 | 3.59e5 |
| Nlg4 (GeneID 42402) | DRSC15701 | 5559 | 2.00e5 |
| Nlg4 (GeneID 42402) | DRSC22243 | 12280 | 5.59e5 |
| CG2861 (GeneID 31414) | DRSC18229 | 6434 | 3.26e5 |
| ds (GeneID 33245) | DRSC00815 | 7823 | 4.31e5 |
| Nup62 (GeneID 36830) | DRSC06970 | 9242 | 2.55e5 |
| CG11504 (GeneID 43557) | DRSC14318 | 8218 | 4.68e5 |
| ORMDL (GeneID 40404) | DRSC11737 | 7255 | 3.82e5 |
| CG5131 (GeneID 35057) | DRSC02817 | 7066 | 4.59e5 |
| ath (GeneID 34357) | DRSC02788 | 7906 | 4.35e5 |
| Mid1 (GeneID 37953) | DRSC04230 | 4371 | 2.66e5 |
| Mid1 (GeneID 37953) | DRSC04231 | 6043 | 4.46e5 |
| Mid1 (GeneID 37953) | DRSC04308 | 6260 | 3.05e5 |
| Mid1 (GeneID 37953) | DRSC22773 | 4480 | 3.82e5 |
| Mid1 (GeneID 37953) | DRSC22803 | 4180 | 2.96e5 |
| CG32683 (GeneID 31970) | DRSC17990 | 5858 | 4.29e5 |
| CG32683 (GeneID 31970) | DRSC18232 | 6018 | 4.83e5 |
| CG32683 (GeneID 31970) | DRSC18233 | 5811 | 5.37e5 |
| CG34199 (GeneID 5740128) | DRSC05867 | 6099 | 4.83e5 |
| CG32241 (GeneID 317934) | DRSC08100 | 4255 | 2.91e5 |
| CG32241 (GeneID 317934) | DRSC21518 | 10131 | 5.29e5 |
| asRNA:CR33945 (GeneID 3772292) | DRSC14080 | 8778 | 3.67e5 |
| FBXO11 (GeneID 41209) | DRSC16497 | 8194 | 5.32e5 |
| Gprk1 (GeneID 3355013) | DRSC20732 | 4200 | 2.66e5 |
| Gprk1 (GeneID 3355013) | DRSC20916 | 6359 | 5.18e5 |
| CheA29a (GeneID 246659) | DRSC21486 | 9143 | 4.66e5 |
| Dscam1 (GeneID 35652) | DRSC05047 | 5459 | 4.49e5 |
| Dscam1 (GeneID 35652) | DRSC05048 | 4000 | 3.59e5 |
| Dscam1 (GeneID 35652) | DRSC07407 | 7201 | 3.43e5 |
| Dscam1 (GeneID 35652) | DRSC21562 | 9010 | 4.38e5 |
| Dscam1 (GeneID 35652) | DRSC22383 | 8951 | 6.79e5 |
| ed (GeneID 33619) | DRSC00350 | 29549 | 9.90e5 |
| ed (GeneID 33619) | DRSC00438 | 8471 | 4.30e5 |
| ed (GeneID 33619) | DRSC00439 | 9455 | 5.17e5 |
| ed (GeneID 33619) | DRSC00478 | 8506 | 4.81e5 |

Entries listed so far whose gene name begins with R or r (2):
| Gene | dsRNA | stable assay Renilla, run 1 (luminescence) | stable assay firefly, run 1 (luminescence) |
| --- | --- | --- | --- |
| RpL37A (GeneID 44783) | DRSC02899 | 10098 | 3.69e5 |
| Rh7 (GeneID 39389) | DRSC10529 | 8106 | 3.91e5 |
